The values that follow come from EP4692091A1 (Changchun Genescience Pharmaceutical Co., Ltd., priority 2023, dated 2024).

The data set in a line: general procedure: solution-phase peptide synthesis; HATU/DIPEA; DMTMM/triethylamine.

For “(1R,3S)-3-(((S)-7-benzyl-20-(2,5-dioxo-2,5-dihydro-1H-pyrrol-1-yl)-3,6,9,12,15-pentaoxo-2,7,8,11,14-pentaazaeicosyl)oxy)cyclobutane-1-carboxylic acid”, the step yield (late stage modification step) worked out at 13%.
Where the note is “late stage modification step”, “(2R,10S)-16-amino-10-benzyl-2-cyclopropyl-6,9,12,15-tetraoxo-3-oxo-5,8,11,14-tetraazahexadecanoic acid” returned a step yield of 54%.
For the setting “late stage modification step”, “(3R,11S)-11-benzyl-3-methyl-24-(2-(methylsulfonyl)pyrimidin-5-yl)-7,10,13,16,19-pentaoxo-4-oxo-6,9,12,15,18-pentaazatetracarbonyl-23-enoic acid” showed a step yield of 21%.
Consider “(3R, 11S)-11-benzyl-24-(2,5-dioxo-2,5-dihydro-1H-pyrrol-1-yl)-3-methyl-7,10,13,16,19-pentaoxo-4-oxa-6,9,12,15,18-pentaazabutanoic acid”, for which the step yield (late stage modification step) is recorded as 39%.
“(7S,15R)-1-amino-7-benzyl-15-methyl-2,5,8,11-tetraoxo-14-oxo-3,6,9,12-tetraazaheptadecan-17-carboxylic acid” returned a step yield (late stage modification step) of 76%.
Substance “Benzyl (11S,19R)-11-benzyl-1-(9H-fluoren-9-yl)-19-methyl-3,6,9,12,15-pentaoxo-2,18-dioxo-4,7,10,13,16-pentaazabenzofuran-21-oate” registered a step yield (coupling step) of 42%.
For the setting “late stage modification step”, “benzyl (11S,19R)-11-benzyl-19-cyclopropyl-1-(9H-fluoren-9-yl)-3,6,9,12,15-pentaoxo-2,18-dioxo-4,7,10,13,16-pentaazaeicosanoate” gave a step yield of 71%.
For “benzyl (11S, 19R)-11-benzyl-19-cyclopropyl-1-(9H-fluoro-9-yl)-3,6,9,12,15-pentaoxo-2,18-dioxo-4,7,10,13,16-pentaazaeicosanoate”, for the setting “coupling step”, the step yield is 76%.
